PubChem BioAssay AID540276 (National Center for Advancing Translational Sciences (NCATS), 2011)
About 5,400 (1.8%) of roughly 300,000 compounds were called active. Inconclusive results, whose numbers are uncertain, are shown with a selection of clear calls. Calls come from the whole dose curve; tested in HEK293 cells. Potencies beside an inconclusive call are fits to weak or partial responses and may not hold up.

Experiment: qHTS for inhibitors of binding or entry into cells for Marburg Virus
Settings: Marburg virus pseudotyped entry inhibition, cell reporter; series mostly up to 37.8 µM
Potency is the fitted concentration of half-maximal effect.

Compound | Potency
CN1CCN(/N=C/c2nc(-c3ccccc3)n3ccccc23)CC1 | inactive
CN(C(=O)COC(=O)c1ccccc1Nc1ccccc1)c1c(N)n(Cc2ccccc2)c(=O)[nH]c1=O | inconclusive: 11.2 µM [inhibitor, partial curve, poor fit]
Cc1sc2ncn(CC(=O)NCC(=O)N(C)Cc3ccccc3)c(=O)c2c1C | inactive
CCc1sc(C(=O)Nc2ccc(F)cc2C)cc1C | inactive
COc1cc(OC)c(OC)cc1CNC(=O)c1ccc(COc2ccccc2)cc1 | inactive
O=C(Nc1cccc(NC(=O)c2ccco2)c1)c1cnccn1 | inconclusive: 25.9 µM [activator, partial curve, poor fit]
Cc1nn(-c2ccccc2)c(Cl)c1C(=O)N1CCN(c2ncnc3c2cnn3-c2ccccc2)CC1 | active: 12.6 µM
O=[N+]([O-])c1ccc2nc(-c3ccccn3)[nH]c2c1 | inconclusive: 10 µM [inhibitor, partial curve, poor fit]
Cc1cc2nc(CCN3CCOCC3)n(S(=O)(=O)c3ccc(C(C)(C)C)cc3)c2cc1C | inactive
CCC(CC)C(=O)OCC(=O)Nc1cccc([N+](=O)[O-])c1 | inactive
O=C1C(Cl)=C(NCc2cccnc2)C(=O)c2ccccc21 | inconclusive: 7.08 µM [inhibitor, partial curve, poor fit]
S=C(Nc1ccc(Br)cc1Cl)N1CCC2(CC1)OCCO2 | inconclusive: 5.01 µM [activator, full curve]
O=C(CSCc1ccccc1)N/N=C/c1ccccc1OCc1ccccc1 | inconclusive: 0.0073 µM [inhibitor, full curve, poor fit]
CN1CCN(C(=O)c2ccccc2NC(=O)c2sc3ccccc3c2Cl)CC1 | inactive
Cc1cccc(NC(=S)NCc2ccc(F)cc2)c1 | inactive
Cc1cc(-c2ccccc2)nc(N/N=C/c2ccc([N+](=O)[O-])cc2)n1 | inconclusive: 35.5 µM [inhibitor, single point]
O=C(Nc1ccc2nc(SCC(=O)N3CCCC3)sc2c1)c1ccc(F)cc1 | inactive
Cc1n[nH]c(=S)n1/N=C/c1ccc(OCc2ccc(Cl)cc2)cc1 | inactive
NC(=O)Cc1nc(-c2ccccc2)cs1 | inconclusive: 0.316 µM [inhibitor, partial curve, poor fit]
CCOC(=O)c1c(NC(=O)COC(=O)c2c(C)noc2C)sc2c1CCC2 | inconclusive: 4.11 µM [inhibitor, single point]
COc1ccccc1CC(=O)Nc1cccc(S(=O)(=O)N2CCOCC2)c1 | inactive
COc1cc2c(cc1OC)[C@@]1(c3ccccc3)CCCC[C@H]1[C@@H]2NC(=O)C(F)(F)F | inactive
COC(=O)C1CCCN1C(=O)COc1ccc(Cl)cc1Br (stereo unspecified) | inconclusive: 3.16 µM [activator, single point]
COc1cc(NC(=O)c2c(OC)cccc2OC)ccc1NC(=O)c1cc2ccccc2o1 | inconclusive: 0.562 µM [activator, full curve, poor fit]

Compound | Potency
CCCc1cc(C(=O)NNC(=S)NCC2CCCO2)cs1 (stereo unspecified) | inactive
Cc1cc(C)c2c(=O)cc(C(=O)Nc3ccc(S(=O)(=O)Nc4nc(C)cc(C)n4)cc3)oc2c1 | inactive
COc1cccc(C(=O)NCc2nnc(SCC(=O)Nc3nccs3)n2-c2cccc(C)c2)c1 | inconclusive: 7.3 µM [inhibitor, partial curve, poor fit]
COc1cc(OC)cc(C(=O)N2CC(=O)Nc3ccccc32)c1 | inconclusive: 0.398 µM [inhibitor, full curve]
CCc1ccc(NC(=S)/N=C(\N)Nc2nc(C)c3cc(CC)ccc3n2)cc1 | inconclusive: 14.1 µM [inhibitor, single point]
NC(=O)c1nsc(C(=O)N(c2ccc(F)cc2)C(C(=O)NCC2CCCO2)c2c[nH]c3ccccc23)c1N (stereo unspecified) | inconclusive: 10 µM [inhibitor, partial curve, poor fit]
Cc1nc(NCc2ccco2)c2c(C)c(C)sc2n1 | inconclusive: 5.8 µM [inhibitor, partial curve]
COc1cccc(/C=N/NC(=O)CC(C)O)c1OC/C=C/c1ccccc1 (stereo unspecified) | inconclusive: 35.5 µM [inhibitor, single point]
CCCCC(=O)NC(=S)Nc1cccc(NC(=O)c2ccco2)c1 | inconclusive: 0.562 µM [activator, partial curve, poor fit]
Cc1ccc(NC(=O)c2cc(C)n(-c3ccccc3)c2C)cc1 | active: 2.24 µM
CN(C)c1ccc(CN(C(=O)c2ccc(Cl)c([N+](=O)[O-])c2)C2CCS(=O)(=O)C2)cc1 (stereo unspecified) | active: 11.2 µM
C/C=C/n1ccnc1CC(O)(c1ccccc1)c1ccc(C)cc1 (stereo unspecified) | inconclusive: 5.01 µM [inhibitor, partial curve]
COc1ccc(S(=O)(=O)Nc2ccc3c(c2)N(C(C)=O)CCC3)cc1 | inactive
Cc1ccc(-c2nc(C)c(C(=O)O)s2)cc1 | inconclusive: 10.3 µM [inhibitor, partial curve, poor fit]
CC1CCCC(NC(=O)C2N(CCCN3CCCC3)C(=O)C3C(C(=O)Nc4ccc(Cl)cc4)C4C=CC32O4)C1C (stereo unspecified) | inconclusive: 11.2 µM [inhibitor, partial curve, poor fit]
CCOc1cc(C2c3c(oc4ccccc4c3=O)C(=O)N2Cc2ccc3c(c2)OCO3)ccc1O (stereo unspecified) | inactive
O=C(CSc1ccc(-c2ccco2)nn1)Nc1cccc(F)c1 | inconclusive: 3.55 µM [inhibitor, single point]
CC(=O)Nc1ccc(C2=NNC(=Nc3ccc(S(=O)(=O)N4CCOCC4)cc3)SC2)cc1 | active: 11.2 µM
O=c1c(Cc2ccc(Cl)cc2Cl)c(O)ccn1Cc1ccncc1 | inconclusive: 11.2 µM [activator, partial curve, poor fit]
CC(=O)c1cccc(NC(=O)N2CCCc3ccccc32)c1 | inconclusive: 20.6 µM [activator, single point]
CCOc1ccc(NC(=O)Nc2cc(OCC(F)(F)F)cc(OCC(F)(F)F)c2)cc1 | inconclusive: 11.2 µM [inhibitor, partial curve]
COc1ccc2nc(Nc3nc(CSc4nnc(C)s4)cc(=O)[nH]3)nc(C)c2c1 | inactive
COC(=O)C(NC(=O)c1ccc(F)cc1)(Nc1ncc(S(=O)(=O)c2ccc([N+](=O)[O-])cc2)s1)C(F)(F)F (stereo unspecified) | inconclusive: 22.4 µM [inhibitor, single point]
CCOC(=O)c1[nH]c(C)c(C(=O)NCCc2ccc(OC)cc2)c1C | inactive

Compound | Potency
CCOc1cc(-n2cnnn2)c(OCC)cc1NC(=O)c1cnccn1 | inactive
Cc1onc(-c2c(F)cccc2Cl)c1C(=O)NCCc1ccncc1 | inconclusive: 1.26 µM [inhibitor, single point]
COc1cccc(=O)c2c(C)n(-c3cc(C)cc(C)c3)c(C)c12 | inconclusive: 20.6 µM [inhibitor, single point]
Cc1cc(C)c(S(=O)(=O)N2CCN(C(=O)C3CC3)CC2)c(C)c1 | inconclusive: 1.26 µM [inhibitor, partial curve, poor fit]
CN(CC(=O)NCc1ccccn1)S(=O)(=O)c1ccc2ccccc2c1 | inactive
N#CC(C(=O)Nc1ccc(Cl)c(Cl)c1)=C1Nc2ccccc2N1 | inconclusive: 22.4 µM [inhibitor, single point]
COc1ccc(NC(=O)c2cc(C(C)C)on2)cc1OC | inconclusive: 29.1 µM [activator, single point]
COc1ccc(/C=C(/NC(=O)c2ccccc2)C(=O)NCc2ccco2)cc1 | inactive
COc1ccc(C(=O)CCc2ccc(OC)c(OC)c2)cc1 | inconclusive: 35.5 µM [inhibitor, single point]
CCCOc1ccccc1Cn1c(=O)sc2ccccc21 | inactive
O=C(/C=C/c1cccc(C(F)(F)F)c1)N1CCN(c2ccccn2)CC1 | inconclusive: 35.5 µM [inhibitor, single point]
CCOC(=O)Cc1csc(NC(=O)c2ccc(NC(C)=O)cc2)n1 | inactive
O=C1NC(c2ccccc2)Oc2ccccc21 (stereo unspecified) | inconclusive: 1.26 µM [inhibitor, single point]
NC(=S)n1[nH]c(-c2ccc([N+](=O)[O-])cc2)c(N=Nc2cccc(Cl)c2)c1=O | inconclusive: 6.31 µM [inhibitor, full curve, poor fit]
Cc1ccnc(NC(c2ccccc2F)c2ccc3cccnc3c2O)c1 (stereo unspecified) | inconclusive: 35.5 µM [inhibitor, single point]
CCc1ccccc1NC(=O)CSc1nnc(-c2nonc2NC(C)=O)n1C | inactive
Cn1cnnc1SCC(=O)c1ccc2c(c1)OCCO2 | inconclusive: 6.51 µM [activator, full curve, poor fit]
O=C(C1CCN(S(=O)(=O)c2ccc(F)cc2)CC1)N1CC=C(c2ccccc2)CC1 | inactive
N#Cc1ccc(-c2cccs2)nc1SCc1ccc(Cl)cc1Cl | inactive
CSc1nsc(SCC(=O)Nc2ccc(Br)cn2)n1 | inconclusive: 11.2 µM [activator, partial curve, poor fit]
COc1ccc(Cl)c(Cn2c(NCCN)nc3c2c(=O)n(C)c(=O)n3C)c1 | inactive
CCCCOc1ccc(N(CC(=O)NC2CCCC2)C(=O)CCC(=O)Nc2ccccn2)cc1 | inconclusive: 0.112 µM [activator, full curve, poor fit]
Cc1ccc(CNC(=O)COC(=O)c2cnc(C)cn2)cc1 | inconclusive: 22.4 µM [activator, single point]

Filtered by structure: those above containing bromine (3)
Compound | Potency
S=C(Nc1ccc(Br)cc1Cl)N1CCC2(CC1)OCCO2 | inconclusive: 5.01 µM [activator, full curve]
COC(=O)C1CCCN1C(=O)COc1ccc(Cl)cc1Br (stereo unspecified) | inconclusive: 3.16 µM [activator, single point]
CSc1nsc(SCC(=O)Nc2ccc(Br)cn2)n1 | inconclusive: 11.2 µM [activator, partial curve, poor fit]
